Test results from PubChem BioAssay AID192 (DTP/NCI, 2004).
The list shows only some results of the screen, not a fair sample: it is rich in T/C values a quarter to a half above the control, in often repeated tests (any T/C) and in doses without a T/C. Further doses and runs are listed elsewhere. T/C gives the treated animals as a percentage of the vehicle group. Some doses have a count of surviving animals in place of a T/C: the source holds a T/C of zero for them, seemingly a mark for toxic or unscored doses. Some survivor counts are full or nearly so, which does not show that the dose was tolerated: the source hardly ever lists a survival T/C far under the control, and the zero likely stands for such cases as well. Counts of survivors are from the toxicity check (mostly the fifth day) where no day follows; animals may have died later. Schedule codes are those of the source, taken here to give the interval after Q, in days (D) or hours (H), and the number of doses after X. Some entries hold several experiments; their values stand side by side, smallest first. For survival time, this PubChem deposit counts one and a half times the control or more as active, and values a quarter to a half above the control carry no call in these data; other NCI protocols may use other cut-offs. Some T/C values carry the count of animals alive at the toxicity check (mostly the fifth day); where none is given, no animal had died by that day.

Test system: BDF1 mice, B16 melanoma ip, median survival T/C
Experiment: NCI In Vivo Anticancer Drug Screen. Data for tumor model B16 Melanoma (intraperitoneal) in B6D2F1 (BDF1) mice
Settings: T/C endpoint: median survival time, higher T/C = longer survival
Summary of the method: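 Vehicle-treated animals serve as the reference (C); treated animals (T) are scored for survival or tumor size after tumor transplantation.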

[1] = dose: 25.0 mg/kg/injection, schedule: Q01DX009 (ip), vehicle: Klucel (hydroxypropylcellulose) (HPC)
[2] = dose: 100.0 mg/kg/injection, schedule: Q01DX009 (ip), vehicle: Klucel (hydroxypropylcellulose) (HPC)
[3] = dose: 200.0 mg/kg/injection, schedule: Q01DX009 (ip), vehicle: Klucel (hydroxypropylcellulose) (HPC)
[4] = dose: 400.0 mg/kg/injection, schedule: Q01DX009 (ip), vehicle: Klucel (hydroxypropylcellulose) (HPC)
[5] = dose: 200.0 mg/kg/injection, schedule: Q01DX009 (ip), vehicle: water
[6] = dose: 200.0 mg/kg/injection, schedule: Q01DX009 (ip), vehicle: saline
[7] = dose: 400.0 mg/kg/injection, schedule: Q01DX009 (ip), vehicle: saline
[8] = dose: 200.0 mg/kg/injection, schedule: Q01DX009 (ip), vehicle: saline with Tween-80
[9] = dose: 400.0 mg/kg/injection, schedule: Q01DX009 (ip), vehicle: saline with Tween-80
[10] = dose: 50.0 mg/kg/injection, schedule: Q01DX009 (ip), vehicle: saline with Tween-80
[11] = dose: 100.0 mg/kg/injection, schedule: Q01DX009 (ip), vehicle: saline with Tween-80
[12] = dose: 25.0 mg/kg/injection, schedule: Q01DX009 (ip), vehicle: saline with Tween-80

## O=NN(CCCl)C(=O)Nc1c[nH]c2ccccc12
dose: 3.13 mg/kg/injection, schedule: Q01DX009 (ip), vehicle: Klucel (hydroxypropylcellulose) (HPC)
  T/C: 129 % of control
dose: 6.25 mg/kg/injection, schedule: Q01DX009 (ip), vehicle: Klucel (hydroxypropylcellulose) (HPC)
  T/C: 128 % of control
dose: 12.5 mg/kg/injection, schedule: Q01DX009 (ip), vehicle: Klucel (hydroxypropylcellulose) (HPC)
  T/C: 130 % of control
[1]
  T/C: 143 % of control
[2]
  T/C: 148 % of control [8 of 10 alive]
[3]
  survivor count: 5 of 10
[4]
  survivor count: 9 of 10

## CCN1C[C@]2(COC)[C@H](O)C[C@H](OC)[C@]34C1[C@H]([C@H](OC)[C@H]23)[C@]1(OC(C)=O)[C@H]2[C@@H](OC(=O)c3ccccc3)[C@](O)(C[C@H]24)[C@@H](OC)[C@@H]1O
dose: 0.13 mg/kg/injection, schedule: Q01DX009 (ip), vehicle: Klucel (hydroxypropylcellulose) (HPC)
  survivor count: 10 of 10
dose: 0.25 mg/kg/injection, schedule: Q01DX009 (ip), vehicle: Klucel (hydroxypropylcellulose) (HPC)
  survivor count: 8 of 10
dose: 0.5 mg/kg/injection, schedule: Q01DX009 (ip), vehicle: Klucel (hydroxypropylcellulose) (HPC)
  survivor count: 7 of 10
dose: 1.0 mg/kg/injection, schedule: Q01DX009 (ip), vehicle: Klucel (hydroxypropylcellulose) (HPC)
  survivor count: 0 of 10
dose: 30.0 micrograms/kg/injection, schedule: Q01DX009 (ip), vehicle: Klucel (hydroxypropylcellulose) (HPC)
  survivor count: 10 of 10

## CC[n+]1c(C)ccc2ccccc21
dose: 100.0 mg/kg/injection, schedule: Q01DX009 (ip), vehicle: carboxymethylcellulose (CMC)
  survivor count: 0 of 10

## CCc1cnccc1C
[2]
  survivor count: 6 of 10

## O=S(=O)(NC(=S)S)c1ccccc1
dose: 100.0 mg/kg/injection, schedule: Q01DX009 (ip), vehicle: water
  survivor count: 4 of 10
[5]
  survivor count: 2 of 10
dose: 400.0 mg/kg/injection, schedule: Q01DX009 (ip), vehicle: water
  survivor count: 0 of 10

## CCN(CC)CCOC(=O)c1ccc(N)cc1
[6]
  survivor count: 2 of 10
[7]
  survivor count: 0 of 10

## CCOC(=O)c1c[nH]c2oc(/C=N/N3CC(CN4CCOCC4)OC3=O)cc2c1=O (configuration not stated)
[6]
  T/C: 129 % of control
[7]
  survivor count: 9 of 10

## O=C1c2c(O)cccc2-c2nn(CCNCCO)c3ccc(NCCNCCO)c1c23
dose: 11.0 mg/kg/injection, schedule: Q01DX009 (ip), vehicle: water
  survivor count: 9 of 10
dose: 22.0 mg/kg/injection, schedule: Q01DX009 (ip), vehicle: water
  survivor count: 10 of 10
dose: 44.0 mg/kg/injection, schedule: Q01DX009 (ip), vehicle: water
  survivor count: 8 of 10

## CSc1cc(=O)n2c3ccccc3c3ccnc1c32
dose: 10.0 mg/kg/injection, schedule: Q01DX009 (ip), vehicle: saline with Tween-80
  T/C: 126 % of control [9 of 10 alive]
dose: 20.0 mg/kg/injection, schedule: Q01DX009 (ip), vehicle: saline with Tween-80
  survivor count: 7 of 10

## Cc1cccc(/C=N/OCCC(C)C)n1
[8]
  survivor count: 10 of 10

## COc1cc2c(c(OC)c1OC)-c1ccc(SCc3ccccc3)c(=O)cc1[C@@H](NC(C)=O)CC2
[1]
  survivor count: 5 of 10 and 7 of 10
dose: 50.0 mg/kg/injection, schedule: Q01DX009 (ip), vehicle: Klucel (hydroxypropylcellulose) (HPC)
  survivor count: 1 of 10
[2]
  survivor count: 0 of 10
[3]
  survivor count: 0 of 10
[4]
  survivor count: 0 of 10

## COC1C(OC(=O)c2ccc(C)[nH]2)C(O)C(Oc2ccc3c(O)c(NC(=O)c4ccc(O)c(CC=C(C)C)c4)c(=O)oc3c2Cl)OC1(C)C (configuration not stated)
dose: 50.0 mg/kg/injection, schedule: Q01DX009 (ip), vehicle: other
  survivor count: 8 of 10
dose: 400.0 mg/kg/injection, schedule: Q01DX009 (ip), vehicle: other
  survivor count: 8 of 10

## CCOC(=O)C(C(=O)COC)C(=O)OCC
[5]
  survivor count: 8 of 8

## Cc1cccc(CN2CCN(C(c3ccccc3)c3ccc(Cl)cc3)CC2)c1 (configuration not stated)
[2]
  survivor count: 10 of 10
[3]
  survivor count: 3 of 10
dose: 200.0 mg/kg/injection, schedule: Q04DX003 (ip), vehicle: Klucel (hydroxypropylcellulose) (HPC)
  survivor count: 10 of 10
dose: 400.0 mg/kg/injection, schedule: Q04DX003 (ip), vehicle: Klucel (hydroxypropylcellulose) (HPC)
  survivor count: 9 of 10

## COc1cc2c(cc1OC)C1CNC(=O)C1C(c1ccccc1)C2 (configuration not stated)
dose: 30.0 mg/kg/injection, schedule: Q01DX009 (ip), vehicle: Klucel (hydroxypropylcellulose) (HPC)
  survivor count: 10 of 10
dose: 75.0 mg/kg/injection, schedule: Q01DX009 (ip), vehicle: Klucel (hydroxypropylcellulose) (HPC)
  survivor count: 10 of 10
dose: 150.0 mg/kg/injection, schedule: Q01DX009 (ip), vehicle: Klucel (hydroxypropylcellulose) (HPC)
  survivor count: 10 of 10

## O=C(NC(Cc1ccccc1)C(=O)NC(Cc1c[nH]c2ccccc12)C(=O)O)OCc1ccccc1 (configuration not stated)
[9]
  survivor count: 9 of 10

## Cc1cc(Cl)ccc1NC(=O)CCl
[9]
  survivor count: 8 of 10

## O=C1NC(=O)C([N+](=O)[O-])=C(O)C1=O
dose: 300.0 mg/kg/injection, schedule: Q04DX003 (ip), vehicle: other
  survivor count: 10 of 10

## CCS(=O)(=O)Nc1cccc(Nc2c3cccc(C)c3nc3c(C)cccc23)c1OC
[10]
  survivor count: 10 of 10
[11]
  survivor count: 10 of 10

## CC(O)c1cc(Cl)ccc1Cl (configuration not stated)
dose: 400.0 mg/kg/injection, schedule: Q04DX003 (ip), vehicle: saline with Tween-80
  survivor count: 9 of 10

## NCCCOc1ccc([N+](=O)[O-])cc1Cl
[6]
  survivor count: 1 of 10

## CC1=CC2=C(C=O)C(=O)[C@](C)(O)[C@@H](O)C2=CO1
[10]
  survivor count: 10 of 10
[11]
  survivor count: 3 of 10

## Cc1ccc(S(=O)(=O)Cl)cc1Cl
[8]
  survivor count: 10 of 10

## O=C(Nc1ccccc1C(F)(F)F)c1ccc(Cl)cc1Cl
[9]
  survivor count: 10 of 10

## Cn1cnc([N+](=O)[O-])c1Sc1nc(N)nc2c1ncn2C1OC(CO)C(O)C1O (configuration not stated)
dose: 6.25 mg/kg/injection, schedule: Q01DX009 (ip), vehicle: suspension in saline
  T/C: 125 % of control
[12]
  survivor count: 10 of 10
dose: 25.0 mg/kg/injection, schedule: Q01DX009 (ip), vehicle: suspension in saline
  survivor count: 10 of 10
[10]
  survivor count: 10 of 10
dose: 50.0 mg/kg/injection, schedule: Q01DX009 (ip), vehicle: suspension in saline
  survivor count: 10 of 10
[11]
  survivor count: 10 of 10

## CN(C)N=Nc1cn[nH]c1C(N)=O
[4]
  survivor count: 10 of 10

## COc1ccc2nc3cc(Cl)ccc3c(NC(C)CCCN(CCCl)CCCl)c2c1 (configuration not stated)
dose: 1.0 mg/kg/injection, schedule: Q01DX009 (ip), vehicle: saline
  survivor count: 10 of 10
dose: 2.0 mg/kg/injection, schedule: Q01DX009 (ip), vehicle: saline
  survivor count: 6 of 10
dose: 2.5 mg/kg/injection, schedule: Q04DX003 (ip), vehicle: saline with Tween-80
  survivor count: 10 of 10
dose: 5.0 mg/kg/injection, schedule: Q04DX003 (ip), vehicle: saline with Tween-80
  survivor count: 10 of 10

## COc1cccc2c1cc([N+](=O)[O-])c1c(C(=O)O)cc3c(c12)OCO3
dose: 2.5 mg/kg/injection, schedule: Q01DX009 (ip), vehicle: Klucel (hydroxypropylcellulose) (HPC)
  survivor count: 10 of 10
dose: 5.0 mg/kg/injection, schedule: Q01DX009 (ip), vehicle: Klucel (hydroxypropylcellulose) (HPC)
  survivor count: 10 of 10
dose: 10.0 mg/kg/injection, schedule: Q01DX009 (ip), vehicle: Klucel (hydroxypropylcellulose) (HPC)
  survivor count: 10 of 10

## C1#CCCCCCC#CCCCC1
[12]
  survivor count: 10 of 10
dose: 100.0 mg/kg/injection, schedule: Q04DX003 (ip), vehicle: saline with Tween-80
  survivor count: 10 of 10
dose: 200.0 mg/kg/injection, schedule: Q04DX003 (ip), vehicle: saline with Tween-80
  survivor count: 8 of 10

## N/C(=N\N=C\c1ccc(-c2ccccc2)cc1)N[N+](=O)[O-]
[2]
  survivor count: 10 of 10
[4]
  survivor count: 10 of 10
